Reference: patent US20130130175A1, “Compound for Photoacid Generator, Resist Composition Using the Same, and Pattern-Forming Method” (CENTRAL GLASS COMPANY, LIMITED, priority 2007, published 2013)

Assay: Photo acid generation function (actinometry of acid generation, quantum yield)
Type: physicochemical
Conditions: 0.05 mol/L acetonitrile solution, 290 nm light from xenon lamp, acid observed by tetrabromophenol blue absorption at 610 nm

Row | SMILES | quantum yield of acid generation
1 | O=C(OCC(F)(F)S(=O)(=O)O)C12CC3CC(CC(C3)C1)C2 [Synthesis Example 8, triphenylsulfonium 2-(1′-adamantane)carbonyloxy-1,1-difluoroethanesulfonate] | 0.21
2 | O=C(OCC(F)(F)S(=O)(=O)O)C12CC3CC(CC(O)(C3)C1)C2 [Synthesis Example 11, triphenylsulfonium 2-(3′-hydroxy-1′-adamantane)carbonyloxy-1,1-difluoroethanesulfonate] | 0.20
